The values below come from US20060234285A1 (Human Genome Sciences, published 2006).

Sequences of proteins named here, by UniProt entry; tags and fusion partners are left off. Residues count along the entry.
UniProt O43557: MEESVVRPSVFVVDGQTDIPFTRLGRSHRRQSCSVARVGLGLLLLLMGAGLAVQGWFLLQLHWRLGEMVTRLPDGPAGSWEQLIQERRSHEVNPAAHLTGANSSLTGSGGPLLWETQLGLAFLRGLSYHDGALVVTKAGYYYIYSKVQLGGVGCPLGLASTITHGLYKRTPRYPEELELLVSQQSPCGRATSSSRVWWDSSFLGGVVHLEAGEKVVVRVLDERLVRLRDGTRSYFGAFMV
UniProt P36941, residues 31-227: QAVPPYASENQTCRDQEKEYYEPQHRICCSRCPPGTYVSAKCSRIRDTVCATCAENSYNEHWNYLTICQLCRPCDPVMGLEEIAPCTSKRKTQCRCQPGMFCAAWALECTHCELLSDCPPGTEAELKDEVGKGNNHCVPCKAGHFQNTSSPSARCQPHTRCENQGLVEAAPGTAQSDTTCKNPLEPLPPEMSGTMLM

This experiment concerns the target AIM-II, full sequence, on stably transfected HEK 293 EBNA cells (UniProt O43557). Nature of the experiment: flow cytometry on AIM-II-transfected HEK 293 EBNA cells.

Results are given in words; binding and its absence hold for the method and conditions named. Some entries that bind do so weakly or less than the wild type.

As for “LTβR-Fc (from UniProt P36941 31-227) (Fc fusion)”, the binding result is listed as “binds”.
